Data published in PubChem BioAssay AID1471 (National Center for Advancing Translational Sciences (NCATS), 2008).
“And” between values parts separate entries of the source, which are not always exact repeats. Identical values can stand only once. In all, about 230,000 compounds went through this assay and about 310 (0.13%) were called active. Inconclusive results (about 2%) are left out. Calls come from the whole dose curve; as a rule, active = well fitted activation curve with a large enough effect; inconclusive = small, poorly fitted or top-dose-only effect; inactive = no such curve, though single readings can be large or run the other way. The list shows a part of the results, in another mix than the full data. The source gives no active or inactive call for entries shown without one. A structure can be active in one record and inactive in another.

assay: qHTS Multiplex Assay to Identify Dual Action Probes in a Cell Model of Huntington: Cytoprotection (ATP); details: PC12 HTT-Q103 induced, ATP luminescence, 40 h; cytoprotection (ATP increase): at 56.4 µM (top of the series) unless noted; note: nearly all actives have a fitted effect of over 45% in size;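 for cytoprotection (ATP increase): toxic huntingtin expression switched on by the ecdysone agonist tebufenozide; % of control where 0% means no effect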
Excerpt: NIH Chemical Genomics Center [NCGC]
NIH Molecular Libraries Probe Production centers Network [MLPCN]
Assay Submitter (PI): Wei Zheng
Huntington's disease is a neurodegenerative disorder caused by a trinucleotide repeat expansion in Exon 1 of the Huntingtin gene. The CAG trinucleotide encodes glutamine and polyglutamine expansions cause cell death in selective areas of the brain. Huntington polyglutamine repeats have the tendency to form aggregates which are observable in later stages of the disease. The exact nature of the aggregates, whether toxic, protective, or insignificant, is unclear.
A stable PC12 cell line containing a gene fusion of Exon 1 of the Huntingtin gene linked to GFP under the control of the inducible ecdysone promoter were used as the cell-based model of Huntington Disease for high throughput screening. Exon 1 of the Huntingtin gene contained an expansion of 103 polyglutamines (Q103) which, when expressed, caused cell death and distinct, bright GFP aggregates. The amount of cell death and the size and intensity of GFP aggregates increased over time and induction level. The cell death were quantified with a measurement of ATP content in the cells. A maximal 40-50% of cell death was observed when the Huntington gene was induced in this cell line.
We optimized this assay in a homogeneous 1536 well format. A quantitative high throughput screen (qHTS) was conducted on the PC12 cells which were induced to express the toxic fusion construct. Small molecules which prevented cell death were identified by using a luminescent ATP quantification method (Perkin Elmer's ATPlite).
PC12 cells stably containing a construct with an ecdysone inducible promoter expressing GFP fused to the exon 1 of HTTQ103 (Huntington protein which containing a 103 ployglutamine expansion) were used.
NCGC Assay Protocol Summary:
Sequence, Parameter, Description
1, Reagent, 5 uL 1500 cells/well 1536 TC treated White clear bottom plate
2, Compound, 23 nL Tebufenozide inducer (100 nM final) to all columns
3, Compound, 23 nL 40 uM to 0.5 nM Libraries
5, Reagent, 5 ul ATPLite cell death assay reagent
6, Detector, 4 sec integration with a Viewlux Luminescent
Media consisted of phenol red free DMEM + 5% equine serum (Hyclone # SH30072.03 ), 5% supplemented Bovine Calf Serum (Hyclone # SH30074.03 ), 1x pen/strep, no G418
Control columns: 1 = DMSO, 2= 2 uM teb dilns (1:1), 4 = 100 nM Teb inducer. Sample columns received 100 nM Teb.
Potency is the fitted concentration of half-maximal effect.

SMILES	cytoprotection (ATP increase)	Potency
C[C@@H]1CC[C@H]2[C@@H](C)C(=O)O[C@@H]3OC4(C)CC[C@@H]1[C@]32OO4	-147%	–
Oc1cccc2cccnc12	-84.5%	–
CC(=O)O[C@@H]1C[C@@]2(C)C(c3ccoc3)C[C@H]3O[C@]32[C@]2(C)C(=O)C(O)=C3C(C)(C)C(=O)C=C[C@]3(C)C12 (some centres not stated)	-182%	–
CC(CCc1ccccc1)NC(C)C(O)c1ccc(O)cc1 (configuration not stated)	-13.7%	–
CC1(C)OC1COc1c2occc2cc2ccc(=O)oc12 (configuration not stated)	-46.5%	–
C[C@]12[C@H](O)CC3C(CC[C@@H]4C[C@@H](O)CC[C@]34C)[C@@]1(O)CC[C@@H]2C1=CC(=O)OC1 (some centres not stated)	43.3% [at 1.9 µM]	–
CC(C)[C@H](NC(=O)[C@H](CCC(=O)O)NC(=O)[C@H](Cc1ccccc1)NC(=O)[C@H](C)NC(=O)[C@@H](N)Cc1ccc(O)cc1)C(=O)N[C@H](C(=O)NCC(N)=O)C(C)C	-31.4%	–
c1ccc2c(c1)OC[C@@H](C1=NCCN1)O2	–	active: 5.01 µM
COc1ccc(-n2nc(C(F)(F)F)cc2-c2ccc(Cl)cc2)cc1	-35.7%	–
COc1cc(CC(=O)OCC2=C[C@H]3[C@@H]4C(C)(C)[C@]4(OC(C)=O)[C@H](OC(=O)Cc4ccccc4)[C@@H](C)[C@]3(O)[C@@H]3C=C(C)C(=O)[C@@]3(O)C2)ccc1O	-79.9%	–
CC1=CC(=O)c2c(O)cccc2C1=O	-324%	–
CC(Cc1ccc(OCC(=O)O)cc1)NCC(O)c1cccc(Cl)c1 (configuration not stated)	50.1%	–
CCCCCCC[n+]1ccc(-c2cc[n+](CCCCCCC)cc2)cc1	–	active: 0.891 µM
CC(C)=CCCC1(C)C=Cc2c(O)c3c(c(CC=C(C)C)c2O1)OC12C(CC4CC1C(C)(C)OC2(C/C=C(/C)C(=O)O)C4O)C3=O (configuration not stated)	–	active: 3.16 µM
COc1ccc2c(c1)[nH]c1c(C)nccc12	-42.6%	–
CCCCC[C@@H](/C=C/C=C\CCCCCCCCCC(=O)O)OO	-31.4%	–
Cc1[nH]c2ccc(Cl)cc2c1C1=CCNCC1	-34.2%	–
CCCCCCCCCCCCC/C=C/[C@@H](O)[C@@H](N)COP(=O)([O-])OCC[N+](C)(C)C	-54.1%	–

SMILES	cytoprotection (ATP increase)	Potency
CC(=O)Oc1ccc(Cl)c2cccnc12	-92%	–
OCCN(CCO)CCO	35.7%	–
CC(C)(O)/C=C\C(=O)[C@](C)(O)[C@H]1[C@H](O)C[C@]2(C)[C@@H]3CC=C4[C@@H](C=C(O)C(=O)C4(C)C)[C@]3(C)C(=O)C[C@@]12C	–	active: 5.01 µM
O=C(/C=C/c1ccc(Cl)cc1)N[C@@]12CCC(=O)[C@@H]3Oc4c(O)ccc5c4[C@@]31CCN(CC1CC1)C2C5	-37.2%	–
O=C1/C(=C\c2ccccc2)C[C@@]2(O)[C@H]3Cc4ccc(O)c5c4[C@@]2(CCN3CC2CC2)[C@H]1O5	-52.9%	–
C=C(C)C1CNC(C(=O)O)C1CC(=O)O (configuration not stated)	-35.3%	–
C=C(C)C1Cc2c(ccc3c(=O)c4c(oc23)COc2cc(OC)c(OC)cc2-4)O1 (configuration not stated)	36.1%	–
CCOC(=O)/C=C(C)/C=C/CC(C)CCCC(C)C (configuration not stated)	220%	–
O=C1C=C2C(=CCOC2O)O1 (configuration not stated)	-341%	–
CC1=C(O)C(=O)C=C2C1=CC=C1[C@]2(C)CC[C@@]2(C)C3C[C@](C)(C(=O)O)CC[C@@]3(C)CC[C@@]12C (some centres not stated)	-357%	–
CCC(C)C(=O)OC1C(O)C2C(CN3CC(C)CCC3[C@]2(C)O)C2C[C@]34O[C@@]5(O)C(OC(=O)C(C)(O)CC)CCC3(C)C5C(OC(C)=O)C(OC(C)=O)C4[C@@]21O (some centres not stated)	–	active: 1.41 µM
C[C@H](CCC(=O)O)C[C@H](C)C[C@H](C)C(=O)/C=C(\O)[C@H](C)C[C@H](C)C/C=C/[C@@H](C)[C@@H](O)[C@@H](C)[C@@H](O)C[C@@H]1CC[C@@](C)(C2CC[C@@](C)([C@@H](C)O)O2)O1 (some centres not stated)	-209%	–
CNc1ccc2oc(C[C@@H]3OC4(CC[C@@H]3C)O[C@H]([C@@H](C)C(=O)c3ccc[nH]3)[C@H](C)C[C@H]4C)nc2c1C(=O)O (some centres not stated)	-179%	–
CCOP(=O)(Cc1cc(C(=O)CC)c(C)o1)OCC	404% [at 10 µM]	–
CCCCC/C=C\C/C=C\C/C=C\CCCCCCC(=O)NCCO	-43.5%	–
COc1ccc(CC2NCC(O)C2OC(C)=O)cc1 (configuration not stated)	-88.3% [at 1.9 µM]	–
CCCC(C)(COC(N)=O)COC(=O)NC(C)C (configuration not stated)	31.2%	–
C=C1C([C@@H](O)C[C@H](C)C2O[C@@]3(CCCCO3)CC[C@H]2C)OC2CC[C@@]3(CC[C@@H](/C=C/[C@@H](C)C4CC(C)=C[C@]5(O4)O[C@H](C[C@@](C)(O)C(=O)O)CCC5O)O3)OC2[C@@H]1O (some centres not stated)	65.3%	–
c1ccc2sc(C3(N4CCCCC4)CCCCC3)cc2c1	-35.8%	–

SMILES	cytoprotection (ATP increase)	Potency
C=CC1CN2CCC1CC2C(O)c1ccnc2ccccc12 (configuration not stated)	-19.5%	–
COc1cccc2c1cc([N+](=O)[O-])c1c(C(=O)O)cc3c(c12)OCO3	-17.8%	–
COC1=CC23CCCN2CCc2cc4c(cc2C3C1O)OCO4 (configuration not stated)	-30.5%	–
NC(Cc1ccc(N(CCCl)CCCl)cc1)C(=O)O (configuration not stated)	-114%	–
N#Cc1nn(-c2c(Cl)cc(C(F)(F)F)cc2Cl)c(N)c1S(=O)C(F)(F)F (configuration not stated)	-56.4%	–
CC1(C)C(=O)C=C[C@@]2(C)C1CC(O)[C@]1(C)C2CC[C@@]2(C)C(c3ccoc3)OC(=O)C3O[C@]312 (some centres not stated)	–	active: 0.794 µM
CCN1C[C@@]2(COC)C3[C@@H](OC)[C@H]4C1[C@@]3(C1C[C@]3(O)C(OC)[C@H](O)[C@@]4(OC(C)=O)C1[C@H]3OC(=O)c1ccccc1)[C@H](OC)C[C@H]2O (some centres not stated)	-7.28%	–
CC(=O)O[C@H]1[C@H]2[C@@H](OC(=O)Cc3ccccc3)[C@@H](C)C[C@]2(OC(C)=O)C(=O)/C(C)=C/[C@@H]2[C@H](CC[C@@]13CO3)C2(C)C	-47.8%	–
CNc1ccc2oc(C[C@@H]3OC4(CC[C@@H]3C)O[C@H](C(C)C(=O)c3ccc[nH]3)[C@H](C)C[C@H]4C)nc2c1C(=O)O (some centres not stated)	-345%	–
C=CCc1ccc(OC)cc1	-37.9%	–
CCCCCCCCCCCCCCCC[N+](C)(C)C	-80.5%	–
CN(C)C(=O)Oc1ccc([N+](=O)[O-])cc1	-41.1%	–
CC(C)c1cc2c(c(O)c1O)[C@@]1(C(=O)O)CCCC(C)(C)[C@@H]1CC2	61.7%	–
CC(C)c1cccc(C(C)C)c1O	-48.4%	–
NC1C[C@H]1c1ccccc1 (some centres not stated)	-43.1%	–
N#Cc1c(Cl)c(Cl)c(Cl)c(C#N)c1Cl	-336%	–
O=C1C=C2C=C[C@H]3C[C@@]2(O1)[C@H]1CCCCN31	–	active: 12.6 µM and active: 6.31 µM
COc1ccccc1OCC#CCN1CCCCCC1	–	active: 5.62 µM
